Here are results for 25 molecules from the supplement of paper PMC8256030.

“And” between values parts separate entries of the source, which are not always exact repeats. Equal values may be shown once. The list shows a part of the results. Single values are uncertain here, since repeats match poorly.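 HEK293T cells were given each compound shortly before transfection with a reporter in which red mCherry is followed by the SARS-CoV-2 frameshift element and then GFP in the −1 frame, so GFP appears only after frameshifting.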

For one test, the system named is HEK293T. The test can be described thus: percent viability (nuclei count) relative to control; higher = more viable cells. Particulars: 10 µM; 24 h.
Test [1] deals with SARS-CoV-2 -1 PRF reporter mCherry-FSE-GFP(-1). As to the kind of experiment: mCherry (red) intensity as percent of control; higher = higher upstream reporter expression. The settings on record: 10 µM; 24 h; HEK293T.

For `Cc1cccc(C)c1NC1=NCCCS1` [xylazine], the percent viability in the test on HEK293T amounted to 294%. The mCherry in test [1] was 85.4% and 88.2%. As to `CC(C)[C@@]1(NC(=O)[C@@H]2C[C@@H]3c4cccc5[nH]cc(c45)C[C@H]3N(C)C2)O[C@@]2(O)[C@@H]3CCCN3C(=O)[C@H](Cc3ccccc3)N2C1=O` [Dihydroergocristine], in the test on HEK293T, the percent viability turned out to be 309%. This molecule registered a mCherry in test [1] of 30.2%.

As for `C[C@H](N)[C@H](O)c1ccccc1`, the percent viability with HEK293T is 221% and 177%. Also, the mCherry in test [1] is 90% and 105%. In the case of `COc1ccc(CCN(C)CCCC(C#N)(c2ccc(OC)c(OC)c2)C(C)C)cc1OC` (centres undefined) [verapamil], in test [1], the mCherry is 101% and 80.6%. In turn, `O=C(O)c1ccccc1-c1c2ccc(=O)cc-2oc2cc(O)ccc12` returned a mCherry in test [1] of 99.3%. For `COc1cc([C@@H]2c3cc4c(cc3[C@@H](O[C@@H]3O[C@@H]5CO[C@@H](C)O[C@H]5[C@H](O)[C@H]3O)[C@H]3COC(=O)[C@H]23)OCO4)cc(OC)c1O` [Etoposide], the mCherry in test [1] was found to be 22.5%.

As to `C/C=C/c1ccc(OC)cc1` [Anethole, trans-], in test [1], the mCherry was found to be 63.9%.

Take `N[C@@H](Cc1ccc(O)c(O)c1)C(=O)O` [levodopa]: the mCherry in test [1] was 92.4% and 114%. In the case of `C=C1CC[C@H](O)C/C1=C/C=C1\CCC[C@]2(C)[C@@H]([C@H](C)CCCC(C)C)CC[C@@H]12` [colecalciferol], the mCherry in test [1] is 109% and 87.7%.

On to `NC1=N[C@H](O)[C@H]2[C@H]3O[C@]4(O)O[C@@H]([C@@H](O)[C@@]2(N1)[C@@H]4O)[C@]3(O)CO` [tetrodotoxin], for which the percent viability in the test on HEK293T worked out at 159%. In test [1], `Cn1c2ncnc-2c(O)n(C)c1=O` [Oxtriphylline] returned a mCherry of 91.2%.

For `CC(N)C(O)c1ccccc1` (centres undefined) [Phenylpropanolamine], in the test with HEK293T, the percent viability was 158%. The molecule also registered a mCherry in test [1] of 95%.

As for `C[C@H](C(=O)O)c1cccc(C(=O)c2ccccc2)c1` [dexketoprofen], the mCherry in test [1] worked out at 92.6%. As for `CC1OC(OC2C=C3CCC4C(CCC5(C)C(c6ccc(=O)oc6)CCC45O)C3(C)CC2)C(O)C(O)C1O` (centres undefined), the percent viability in the test on HEK293T came to 3.42%. For `O=C(C1CCCCC1)N1CC(=O)N2CCc3ccccc3C2C1` (centres undefined) [praziquantel], the mCherry in test [1] was 79.5% and 104%.

For `COc1cc([C@@H]2c3cc4c(cc3[C@@H](O[C@@H]3O[C@@H]5CO[C@@H](C)O[C@H]5[C@H](O)[C@H]3O)[C@H]3COC(=O)[C@H]23)OCO4)cc(OC)c1O`, the mCherry in test [1] is 114%.

As for `C[C@]12C/C(=C/O)C(=O)C[C@@H]1CC[C@@H]1[C@@H]2CC[C@@]2(C)[C@H]1CC[C@]2(C)O` [oxymetholone], the percent viability in the test with HEK293T is 137%. Moreover, the mCherry in test [1] came to 84%. `CN1C(C(=O)Nc2ccccn2)=C(O)c2sccc2S1(=O)=O`: in test [1], the mCherry is 126%.

As to `CN1C(C(=O)Nc2ccccn2)=C(O)c2sccc2S1(=O)=O` [tenoxicam], the mCherry in test [1] worked out at 123%. Regarding `CN[C@@H](C)[C@@H](O)c1ccccc1` [pseudoephedrine], the percent viability in the test with HEK293T turned out to be 245%. Further, the mCherry in test [1] turned out to be 93.6%. For `COc1ccc2c3c1O[C@H]1[C@@H](O)C=C[C@H]4[C@@H](C2)N(C)CC[C@@]341` [Codeine], in the test on HEK293T, the percent viability is 328%. In test [1], the mCherry is 101%.

`CCOP(=S)(OCC)Oc1ccc2c(C)c(Cl)c(=O)oc2c1` [coumafos]: the percent viability in the test with HEK293T was found to be 271%. This molecule also registered a mCherry in test [1] of 112%. `O=c1[nH]c(=O)n([C@H]2C[C@H](O)[C@@H](CO)O2)cc1C(F)(F)F` [trifluridine]: in test [1], the mCherry was 110% and 95.7%. For `COc1ccc2c(c1)[nH]c1c(C)nccc12` [Harmine], in the test on HEK293T, the percent viability was found to be 54.2%. In test [1], the mCherry amounted to 49.7%. In the case of `CN1C(C(=O)Nc2ccccn2)=C(O)c2sccc2S1(=O)=O` [Tenoxicam], the mCherry in test [1] was 111% and 86.6%.
